{"sequences": {"note": "Sequences of proteins named here, by UniProt entry; tags and fusion partners are left off.", "UniProt P53350, whole entry, looked up": "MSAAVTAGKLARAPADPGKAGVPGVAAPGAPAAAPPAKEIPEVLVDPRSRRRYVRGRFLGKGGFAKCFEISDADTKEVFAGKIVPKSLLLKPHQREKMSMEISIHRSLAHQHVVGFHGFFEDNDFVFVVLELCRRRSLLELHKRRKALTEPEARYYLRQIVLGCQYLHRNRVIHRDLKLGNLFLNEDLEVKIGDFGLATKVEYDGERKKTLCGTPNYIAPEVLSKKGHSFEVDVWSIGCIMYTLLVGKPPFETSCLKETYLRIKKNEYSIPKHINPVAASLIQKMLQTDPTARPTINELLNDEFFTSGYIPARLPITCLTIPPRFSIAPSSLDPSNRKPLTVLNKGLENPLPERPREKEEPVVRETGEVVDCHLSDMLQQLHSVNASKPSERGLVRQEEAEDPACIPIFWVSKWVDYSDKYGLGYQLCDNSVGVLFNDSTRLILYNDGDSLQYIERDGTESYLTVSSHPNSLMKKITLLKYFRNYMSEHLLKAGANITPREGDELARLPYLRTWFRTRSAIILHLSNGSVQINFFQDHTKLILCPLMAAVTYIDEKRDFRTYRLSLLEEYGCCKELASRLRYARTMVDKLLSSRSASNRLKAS"}, "source": "PubChem BioAssay AID720504", "about": "(National Center for Advancing Translational Sciences (NCATS), 2013)", "note": "Among all 360,000 compounds or so, about 10,000 (2.8%) were called active. The shares of active, inactive and inconclusive entries below differ from those in the screen. Calls follow the shape of the dose curve; as a rule, active = well fitted inhibition curve with a large enough effect; inconclusive = small, poorly fitted or top-dose-only effect; inactive = flat fitted curve, though single readings scatter. A potency beside an inconclusive call is a rough fit, not a confirmed value. % is scaled to controls: 0 for no effect and ±100 for the full control effect; potency is read from the fitted curve at half-maximal effect."}
{"target": "Serine/threonine-protein kinase PLK1 (Homo sapiens) (UniProt P53350)", "assay": "qHTS for Inhibitors of PLK1-PDB (polo-like kinase 1 - polo-box domain): Primary Screen; also: nearly all actives have a fitted effect of over 65% in size; as to max response, negative = inhibition: series mostly up to about 57 µM", "conditions": "Plk1 PBD binding of FITC phosphopeptide, fluorescence polarization"}
{"compound": "CCN(CC)C(=O)c1cccc(NC(=O)C2=COCCO2)c1", "max response, negative = inhibition": "inactive: -10.8%"}
{"compound": "CCc1ccc(OCC(=O)NC(NC(=S)Nc2ccccc2)C(Cl)(Cl)Cl)cc1", "note": "(stereo not given)", "max response, negative = inhibition": "inactive: -5.02%"}
{"compound": "CCOc1ccc2nc(NC(=O)CSc3nc(-c4ccccc4)c(C#N)c(=O)[nH]3)sc2c1", "Potency": "active: 21.2 µM"}
{"compound": "Cc1cccc2sc(NNC(=O)c3cc(=O)c4ccccc4o3)nc12", "Potency": "inconclusive: 10.6 µM [inhibitor, partial curve]"}
{"compound": "Nc1ccc2nc(SCc3ccc([N+](=O)[O-])cc3)sc2c1", "Potency": "inconclusive: 21.2 µM [inhibitor, partial curve]"}
{"compound": "Fc1ccccc1CSc1nc2ncccc2[nH]1", "Potency": "active: 18.9 µM"}
{"compound": "COc1ccc(C(=S)N2CCN(c3ccccc3C)CC2)cc1", "Potency": "active: 21.2 µM"}
{"compound": "O=c1[nH]c2ccc(S(=O)(=O)NCCO)cc2[nH]1", "Potency": "inconclusive: 23.8 µM [inhibitor, single point]"}
{"compound": "COCCN1CCn2c(nc3cc(NC(C)=O)ccc32)C1", "Potency": "inconclusive: 37.7 µM [inhibitor, single point]"}
{"compound": "Cc1ccc(C(=O)N/N=C\\c2ccc(Br)o2)o1", "max response, negative = inhibition": "inactive: -4.25%"}
{"compound": "Cc1cc(C(F)(F)F)n2ncc(-c3ccccc3)c2n1", "Potency": "inconclusive: 21.2 µM [inhibitor, single point]"}
{"compound": "O=C(Nc1cccc2nsnc12)c1ccc(-c2cccc(Cl)c2)o1", "Potency": "inconclusive: 21.2 µM [inhibitor, partial curve]"}
{"compound": "O=C(CS(=O)(=O)Cc1ccccc1)N1CCN(c2cccc(C(F)(F)F)c2)CC1", "Potency": "active: 29.9 µM"}
{"compound": "C[C@H](CO)N1C[C@H](C)[C@@H](CN(C)S(=O)(=O)c2ccccc2)Oc2c(NS(=O)(=O)c3ccccc3)cccc2C1=O", "max response, negative = inhibition": "inactive: -4.57%"}
{"compound": "Cc1ccccc1C(=O)NC(=S)Nc1ccc(N2CCOCC2)cc1", "Potency": "inconclusive: 29.9 µM [inhibitor, single point]"}
{"compound": "COCCn1cnnc1SCC(=O)c1ccc(S(=O)(=O)N2CCCC2)cc1", "Potency": "inconclusive: 29.9 µM [inhibitor, single point]"}
{"compound": "CC1(C)C(=O)C=C(N2CCCCC2)c2ccccc21", "max response, negative = inhibition": "inactive: -9.31%"}
{"compound": "O=C(NNS(=O)(=O)c1ccc([N+](=O)[O-])cc1)c1ccccc1", "max response, negative = inhibition": "inactive: -1.19%"}
{"compound": "CCOC(=O)C1(Cc2cccc(F)c2)CCN(CC(O)CO)CC1", "note": "(stereo not given)", "max response, negative = inhibition": "inactive: -0.816%"}
{"compound": "CCN(CC)S(=O)(=O)c1ccc2c(c1)nc(CCC(=O)O)n2CC", "Potency": "inconclusive: 37.7 µM [inhibitor, single point]"}
{"compound": "Cc1ccc(N(Cc2ccccc2)C(=O)c2ccc(F)c(S(=O)(=O)N3CCOCC3)c2)cc1", "max response, negative = inhibition": "inactive: -8.23%"}
{"compound": "C/C(=N/NC(=O)c1cc(O)c(O)c(O)c1)c1ccc([N+](=O)[O-])cc1", "Potency": "inconclusive: 26.7 µM [inhibitor, single point]"}
{"compound": "O=C(NC(=S)Nc1ccc(S(=O)(=O)N2CCCC2)cc1)c1cccs1", "max response, negative = inhibition": "inactive: -8.93%"}
{"compound": "Cc1ccccc1C(OCCN(C)C)c1ccccc1", "note": "(stereo not given)", "Potency": "inconclusive: 26.7 µM [inhibitor, partial curve]"}
{"compound": "Cc1cc(SCC(=O)OC/C(O)=C(\\C#N)c2nc3ccccc3[nH]2)c(C)cc1Br", "max response, negative = inhibition": "inactive: 0.53%"}
{"compound": "O=C(/C=C/c1cccs1)Nc1scc(-c2ccccc2)c1C(=O)O", "Potency": "inconclusive: 23.8 µM [inhibitor, single point]"}
{"compound": "O=C(CCN1C(=O)/C(=C/c2ccc(Cl)cc2)SC1=S)Nc1cccc(C(=O)O)c1", "Potency": "inconclusive: 26.7 µM [inhibitor, single point]"}
{"compound": "COc1ccc(NC(=O)N(C)[C@H]2C[C@H]3c4[nH]c5ccccc5c4CCN3C(=O)[C@H]2[C@H](C)O)cc1", "max response, negative = inhibition": "inactive: -16.1%"}
{"compound": "Cc1ccc2c(cnn2C(=O)CCC(=O)NCc2cccc(Cl)c2)c1", "Potency": "inconclusive: 29.9 µM [inhibitor, partial curve]"}
{"compound": "Cc1cc(C)c(NS(=O)(=O)c2ccc3c(c2)NC(=O)CCS3)c(C)c1", "max response, negative = inhibition": "inactive: -7.83%"}
{"compound": "CN(C)c1ccc(C2C3C(=O)NC(=O)C3ON2c2ccc(Cl)cc2)cc1", "note": "(stereo not given)", "Potency": "inconclusive: 37.7 µM [inhibitor, single point]"}
{"compound": "CC[C@@]1(c2ccccc2OC)C(=O)N(C(=O)OC)N1C(=O)OC", "max response, negative = inhibition": "inconclusive: -35.6% [inhibitor]"}
{"compound": "CCOc1ccc(C(C)=O)cc1CSc1nnc(-c2cccs2)n1CC1CCCO1", "note": "(stereo not given)", "Potency": "inconclusive: 29.9 µM [inhibitor, partial curve]"}
{"compound": "COc1ccc(NC(=O)CN(C)C(=O)/C=C/c2ccc(OCc3ccccc3)cc2)cc1", "Potency": "active: 29.9 µM"}
{"compound": "OCCN1CCN(C(=S)c2ccc(-c3ccccc3)cc2)CC1", "Potency": "active: 4.74 µM"}
{"compound": "CCn1cc(CNC(=O)c2ccc(OC3CCN(Cc4ccccn4)CC3)cc2)cn1", "Potency": "inconclusive: 23.8 µM [inhibitor, single point]"}
{"compound": "Nc1c(C(=O)O)sc2nc(-c3ccccc3)c3c(c12)CCCC3", "Potency": "inconclusive: 29.9 µM [inhibitor, single point]"}
{"compound": "O=[N+]([O-])c1ccccc1CS(=O)(=O)c1ccccc1", "Potency": "inconclusive: 29.9 µM [inhibitor, single point]"}
{"compound": "CC(=O)Nc1ccc(C2=CC(=O)CC(C)(C)C2)cc1", "max response, negative = inhibition": "inconclusive: -30.2% [inhibitor]"}
{"compound": "CN1CCN(C(=S)Nc2ccccc2Cl)CC1", "max response, negative = inhibition": "inactive: -6.61%"}
{"compound": "COc1ccc(NC(=S)NCCSc2ccc(Cl)cc2)c(OC)c1", "Potency": "inconclusive: 18.9 µM [inhibitor, partial curve]"}
{"compound": "CNC(=O)CSc1nnc(NC(=O)C2CC(=O)N(c3ccccc3OC)C2)s1", "note": "(stereo not given)", "Potency": "inconclusive: 23.8 µM [inhibitor, single point]"}
{"compound": "Cc1cccc(NC(=S)NC(C)C(c2cccs2)N2CCN(C)CC2)c1C", "note": "(stereo not given)", "Potency": "inconclusive: 21.2 µM [inhibitor, partial curve]"}
{"compound": "Cc1cn(CC(=O)NCCc2ccccn2)c(=O)[nH]c1=O", "Potency": "active: 21.2 µM"}
{"compound": "O=C(NCc1ccccn1)C1CCN(Cc2cccc(OCc3ccccc3)c2)CC1", "max response, negative = inhibition": "inactive: 1.3%"}
{"compound": "COc1ccc(/C(O)=C2/C(=O)C(=O)N(CCN3CCOCC3)C2c2ccccn2)cc1", "note": "(stereo not given)", "max response, negative = inhibition": "inconclusive: -33.2% [inhibitor]"}
{"compound": "O=c1cc(CSc2nnnn2-c2ccccc2)nc2scc(-c3ccccc3)n12", "Potency": "inconclusive: 26.7 µM [inhibitor, partial curve]"}
{"compound": "NS(=O)(=O)c1ccc(CCNC(=O)CCc2ccccc2)cc1", "max response, negative = inhibition": "inactive: -7.91%"}
{"compound": "CC(C)C(CCNCc1ccccn1)c1ccc(Cl)cc1", "note": "(stereo not given)", "Potency": "inconclusive: 29.9 µM [inhibitor, partial curve]"}
{"compound": "O=S(=O)(Nc1nc2ccccc2nc1N1CCc2ccccc2C1)c1ccc(Br)cc1", "Potency": "inconclusive: 26.7 µM [inhibitor, single point]"}
{"compound": "COC(=O)c1cccc(Nc2ncnc3ccc(C)cc23)c1", "Potency": "inconclusive: 37.7 µM [inhibitor, single point]"}
{"compound": "O=C(COc1cccnc1[N+](=O)[O-])Nc1ncc(Cl)cc1Cl", "Potency": "inconclusive: 33.6 µM [inhibitor, partial curve]"}
{"compound": "COc1cc(-c2[nH]nc3c2C(c2ccoc2)C(C#N)=C(N)O3)cc(OC)c1OC", "note": "(stereo not given)", "Potency": "inconclusive: 23.8 µM [inhibitor, partial curve]"}
{"compound": "CN(CCc1ccccc1)C1CCCN(S(=O)(=O)CC(F)(F)F)C1", "note": "(stereo not given)", "Potency": "inconclusive: 29.9 µM [inhibitor, partial curve]"}
{"compound": "CCc1nc2c(OCC(N)=O)cccn2c1N(C)C(=O)c1ccc(OC)cc1", "max response, negative = inhibition": "inactive: -13.5%"}
{"compound": "O=S1(=O)CCN2C(Cc3ccc(SC(F)F)cc3)=CSC2=N1", "Potency": "inconclusive: 26.7 µM [inhibitor, single point]"}
{"compound": "CC12CCC(=O)N1C(C(=O)Nc1nnc(SCc3ccccc3F)s1)CS2", "note": "(stereo not given)", "Potency": "inconclusive: 26.7 µM [inhibitor, partial curve]"}
{"compound": "Clc1ccc(OCc2nn3c(-c4ccccc4)nnc3s2)c(Cl)c1", "Potency": "inconclusive: 33.6 µM [inhibitor, partial curve, poor fit]"}
{"compound": "CCOc1ccc(S(=O)(=O)NCc2ccccn2)cc1NC(=O)c1ccccc1F", "max response, negative = inhibition": "inactive: 1.04%"}
{"compound": "C/C(=N\\NC(=S)Nc1cccc(C)c1)c1ccco1", "max response, negative = inhibition": "inconclusive: -31.1% [inhibitor]"}
{"compound": "O=C(Cc1ccccc1)Nc1cccc(N2CCCC2)c1", "max response, negative = inhibition": "inactive: -9.62%"}
{"compound": "O=[N+]([O-])c1cc2c(cc1/C=N/n1c(-c3ccccn3)n[nH]c1=S)OCO2", "Potency": "inconclusive: 21.2 µM [inhibitor, partial curve]"}
{"compound": "Nc1c(OS(=O)(=O)c2ccccc2)cccc1OS(=O)(=O)c1ccccc1", "max response, negative = inhibition": "inactive: -19%"}
{"compound": "CC[C@]12c3[nH]c4ccc(Cl)cc4c3CCN1C(=O)[C@@H](CC(=O)NCc1ccc(OC)c(OC)c1)C[C@@H]2C(=O)N1CCN(C(=O)C2CC2)CC1", "max response, negative = inhibition": "inactive: -3.71%"}
{"compound": "Nc1nc(SCc2ccc(F)cc2)ns1", "Potency": "inconclusive: 26.7 µM [inhibitor, single point]"}
{"compound": "COC(=O)C1=C(C(=O)OC)C(c2cc(Br)ccc2O)c2sc(=O)[nH]c2S1", "note": "(stereo not given)", "Potency": "active: 2.99 µM"}
{"compound": "NC(=O)c1c(N)sc(=S)n1-c1ccccc1", "max response, negative = inhibition": "inactive: -17.5%"}
{"compound": "COc1ccc(OCC(=O)Nc2nnc(-c3ccco3)s2)cc1", "Potency": "inconclusive: 26.7 µM [inhibitor, partial curve]"}
{"compound": "CCCc1c(-c2cccc(Br)c2)ncn1Cc1cccc(-c2ccccc2)c1", "Potency": "inconclusive: 23.8 µM [inhibitor, partial curve]"}
{"compound": "COc1ccc(N2CCN(C(=O)c3ccc4nc(N5CCCCC5)sc4c3)CC2)cc1", "Potency": "inconclusive: 37.7 µM [inhibitor, single point]"}
